From US20250188095A1, “DISUBSTITUTED OCTAHYDROPYRROLO[3,4-c]PYRROLYL METHYL KETONE DERIVATIVE AND USE THEREOF” (JIANGSU NHWA PHARMACEUTICAL CO., LTD, priority 2022, published 2025) come the findings set out here.

This data set is described as follows: Rat pharmacokinetic parameters in rat plasma. The conditions noted are these: male SD rats. The format is in vivo. On the procedure:
Healthy male SD rats aged 6-9 weeks were selected and randomly divided into two groups, with 3 rats in each group. One group was given 1 mg/kg of the test compound by intravenous injection, and the other group was given 10 mg/kg of the test compound by gavage. Whole blood was collected from the animals in the intravenous group and the gavage group before administration and 0.083, 0.25, 0.5, 1.0, 2.0, 4.0, 7.0, 10.0, and 24.0 h after administration and centrifuged to obtain plasma samples.
All biological samples were quantitatively analyzed using the LC-MS/MS method. Pharmacokinetic parameters were calculated using the non-compartmental model linear-log trapezoidal method using WinNonlinTMVersion7.0 (Pharsight, Mountain View, CA) pharmacokinetic software. AUC0-last represents the area under the plasma concentration-time curve from time point zero to the last detectable concentration time point; PO represents oral administration; iv represents intravenous, Cmax represents the peak concentration, and F % represents oral bioavailability.

The AUC(0-t) is the area under the concentration-time curve up to a stated or last time point. A higher AUC(0-t) goes with high exposure. One may read the Cmax as the maximum level reached in the sampled fluid or tissue. The bioavailability is the share of a dose that reaches the circulation, judged against a reference dose that is usually intravenous. With `Cc1cc(C)nc(N2CC3CN(C(=O)c4c(F)cccc4-n4nccn4)CC3C2)n1` (centres unmarked) [Seltorexant, reference compound], the AUC(0-t) by setting is: (PO 10 mg/kg) 701 ng·h/mL; (iv 1 mg/kg) 442 ng·h/mL. Moreover, the Cmax reads like this: (PO 10 mg/kg) 943 ng/mL; (iv 1 mg/kg) 1100 ng/mL. Under “PO 10 mg/kg vs iv 1 mg/kg, read-out: F (%) oral bioavailability”, the bioavailability came to 15.9%.
